Data from article PMC11098506.
Changes are numbered by the printed parent chain. Names may count otherwise. No constants are given. Whether binding was seen depends on the method and setting. Binding seen in cells or lysates may run through a third protein. Binding calls can cover weak binding; strength is not graded here. Blank lines part the entries; values can stand above or below the binder they belong to.

Chains of the proteins cited; added tags and fusions are not shown. Lines headed by an entry give the natural chain unless they say otherwise; changes in a name come on top.
UniProt Q60930: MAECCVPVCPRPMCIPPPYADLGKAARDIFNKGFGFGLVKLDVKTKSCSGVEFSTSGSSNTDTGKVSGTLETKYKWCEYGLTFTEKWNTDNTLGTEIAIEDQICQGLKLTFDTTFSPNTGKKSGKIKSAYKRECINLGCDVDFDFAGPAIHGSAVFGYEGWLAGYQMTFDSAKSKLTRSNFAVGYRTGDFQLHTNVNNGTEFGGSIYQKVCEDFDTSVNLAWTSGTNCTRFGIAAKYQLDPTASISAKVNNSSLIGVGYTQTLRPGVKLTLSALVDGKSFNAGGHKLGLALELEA

Assays:
[1] = biological target: HA-VDAC2^A172C (on a VDAC2 ΔCys background) (mouse) (UniProt Q60930); experiment: cross-linking; disulphide linkage of single cysteines with 1 mM CuPhe, 30 min at 4°C, on heavy membrane fractions of Bax-/-Bak-/-Vdac2-/- MEFs; non-reducing SDS-PAGE and immunoblot
HA-VDAC2^ΔCys (mouse) = HA-VDAC2^ΔCys (mouse) (UniProt Q60930); experiment: co-IP; HA-VDAC2 ΔCys precipitated with anti-HA beads from 1% digitonin-solubilised membrane fractions of Bak-/-Bax-/-Vdac2-/- MEFs, with or without labelling by 0.5 mM 5 kDa PEG-maleimide (30 min, room temperature) beforehand

B3: BAK E92C (on BAK ΔCys) (protein, UniProt Q16611 1-211)
chain: MASGQGPGPPRQESGEPALPSASEEQVAQDTEEVFRSYVFYRHQQEQEAEGVAAPADPEMVTLPLQPSSTMGQVGRQLAIIGDDINRRYDSCFQTMLQHLQPTAENAYEYFTKIATSLFESGINWGRVVALLGFGYRLALHVYQHGLTGFLGQVTRFVVDFMLHHSIARWIAQRGGWVAALNLGNGPILNVLVVLGVVLLGQFVVRRFFKS
binding [1]: binds

B7: BAK I85C (on BAK ΔCys) (protein, UniProt Q16611 1-211)
chain: B3 chain with I85C, C92E
binding [1]: binds

B10: BAK R156C labelled with PEG-maleimide (5 kDa) (protein, UniProt Q16611 1-211)
chain: B3 chain with C92E, R156C
modifications: 5 kDa PEG-maleimide on the cysteine at 156
binding (HA-VDAC2^ΔCys (mouse)): binds

B11: BAK G4C labelled with PEG-maleimide (5 kDa) (protein, UniProt Q16611 1-211)
chain: B3 chain with G4C, C92E
modifications: 5 kDa PEG-maleimide on the cysteine at 4
binding (HA-VDAC2^ΔCys (mouse)): binds

B13: BAK D84C (on BAK ΔCys) (protein, UniProt Q16611 1-211)
chain: B3 chain with D84C, C92E
binding [1]: binds

Other lines, results leading:

binding [1]: binds
B1: BAK^R88C (on BAK ΔCys) (protein, UniProt Q16611 1-211)
chain: B3 chain with R88C, C92E

binding [1]: binds
B2: BAK^Y89C (on BAK ΔCys) (protein, UniProt Q16611 1-211)
chain: B3 chain with Y89C, C92E

binding (HA-VDAC2^ΔCys (mouse)): binds
B4: BAK^R156C (on BAK ΔCys) (protein, UniProt Q16611 1-211)
chain: B3 chain with C92E, R156C

binding [1]: binds
B5: BAK S121C (on BAK ΔCys) (protein, UniProt Q16611 1-211)
chain: B3 chain with C92E, S121C

binding (HA-VDAC2^ΔCys (mouse)): binds
B6: BAK^ΔCys (C14S/C166S) (protein, UniProt Q16611 1-211)
chain: B3 chain with C92E

binding [1]: binds
B8: BAK S117C (on BAK ΔCys) (protein, UniProt Q16611 1-211)
chain: B3 chain with C92E, S117C

binding [1]: binds | binding (HA-VDAC2^ΔCys (mouse)): binds
B9: BAK^N124C (on BAK ΔCys) (protein, UniProt Q16611 1-211)
chain: B3 chain with C92E, N124C

binding (HA-VDAC2^ΔCys (mouse)): binds
B12: BAK^G4C (on BAK ΔCys) (protein, UniProt Q16611 1-211)
chain: B3 chain with G4C, C92E
